We go through one molecule from patent US20120213774A1.

Amino acid sequences for entries named in this document (tags omitted). Residues count along the entry.
UniProt Q01638, residues 19-328: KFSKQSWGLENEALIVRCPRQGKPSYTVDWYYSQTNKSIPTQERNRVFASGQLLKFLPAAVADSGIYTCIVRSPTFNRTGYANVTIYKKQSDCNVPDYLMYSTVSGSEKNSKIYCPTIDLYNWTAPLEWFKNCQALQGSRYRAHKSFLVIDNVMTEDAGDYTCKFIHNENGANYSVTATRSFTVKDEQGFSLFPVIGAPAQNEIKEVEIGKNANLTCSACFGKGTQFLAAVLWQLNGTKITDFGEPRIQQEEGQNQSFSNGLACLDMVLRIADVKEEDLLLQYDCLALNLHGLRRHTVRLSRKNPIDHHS

These are yes or no findings as the source states them, for the method shown. Some results given as binding are weak or reduced against the parent protein; the word gives no strength.

This test addresses human IL33 Receptor ST2, His-tagged (ST2 wildtype) (human) (UniProt Q01638). Briefly: SPR (BIAcore T100, 25 C), His-tagged ST2 captured by Penta-His, antibody at 100 nM.

B1: Antibody ra170 (rabbit IgG1) (antibody, V domains shown)
VH: QSVEESGGRLVTPGTPLTLTCTVSGFSLSSHDMSWVRQAPGKGLEWIGYIWSDDNTYYASWAKGRFTISKTSTTVDLKITSPTTEDTATYFCARDQYRSSGVSDYDIWGPGTLVTVSS
VL: AAVLTQTPSPVSAAVGGTVTISCQSSQSVGNNNDLAWYQQKPGQPPKILIYKASTLASGVPSRFEGSGSGTQFTLTISDVQCDDAATYYCLGGYDDDADNTFGGGTEVVVK
B1: the binding entry was “binds”.
